# Results are given in words; binding and its absence hold for the method and conditions named. Binding seen in cells or lysates may run through a third protein. Some entries that bind do so weakly or less than the wild type. For part of these data: Sequences can lack the tags named with a protein.
# Protein sequences, listed by entry. Tags and fused reporters are not part of them.
# UniProt P42582: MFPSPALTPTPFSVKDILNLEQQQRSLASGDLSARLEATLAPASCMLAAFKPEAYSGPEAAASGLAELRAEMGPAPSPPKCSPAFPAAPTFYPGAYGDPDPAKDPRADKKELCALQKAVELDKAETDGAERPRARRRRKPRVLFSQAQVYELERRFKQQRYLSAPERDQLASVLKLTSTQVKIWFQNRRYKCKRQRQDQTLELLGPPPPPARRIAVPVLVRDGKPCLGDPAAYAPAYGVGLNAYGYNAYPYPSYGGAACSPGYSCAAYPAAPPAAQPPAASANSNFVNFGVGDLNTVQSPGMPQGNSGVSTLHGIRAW
# UniProt Q8VIM5: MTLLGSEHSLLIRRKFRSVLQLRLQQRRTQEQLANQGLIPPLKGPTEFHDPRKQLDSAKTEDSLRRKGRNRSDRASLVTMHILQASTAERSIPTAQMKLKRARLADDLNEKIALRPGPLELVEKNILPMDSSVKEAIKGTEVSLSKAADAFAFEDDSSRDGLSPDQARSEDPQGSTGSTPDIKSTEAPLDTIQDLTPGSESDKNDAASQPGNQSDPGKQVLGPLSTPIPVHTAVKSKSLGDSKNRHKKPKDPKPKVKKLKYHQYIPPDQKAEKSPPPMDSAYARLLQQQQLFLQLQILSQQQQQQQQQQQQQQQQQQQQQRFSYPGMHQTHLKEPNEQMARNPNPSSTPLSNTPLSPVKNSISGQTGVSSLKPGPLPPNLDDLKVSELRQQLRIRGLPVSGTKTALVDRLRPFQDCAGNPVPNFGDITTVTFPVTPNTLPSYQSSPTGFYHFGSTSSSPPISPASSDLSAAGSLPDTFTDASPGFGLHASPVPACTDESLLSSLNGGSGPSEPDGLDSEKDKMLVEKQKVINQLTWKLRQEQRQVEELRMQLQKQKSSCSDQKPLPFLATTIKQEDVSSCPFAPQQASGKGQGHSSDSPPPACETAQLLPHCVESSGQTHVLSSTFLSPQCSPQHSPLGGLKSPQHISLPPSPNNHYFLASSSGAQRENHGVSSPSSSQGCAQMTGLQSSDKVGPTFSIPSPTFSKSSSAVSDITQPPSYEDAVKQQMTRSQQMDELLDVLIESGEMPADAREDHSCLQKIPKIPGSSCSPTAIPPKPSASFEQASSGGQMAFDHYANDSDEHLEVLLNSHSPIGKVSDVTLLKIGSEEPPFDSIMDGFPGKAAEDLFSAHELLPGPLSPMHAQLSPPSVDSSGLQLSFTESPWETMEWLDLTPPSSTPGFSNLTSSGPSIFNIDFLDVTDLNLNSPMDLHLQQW
# T1: GST-fused BAF60c, Q6P9Z1
# T1 chain: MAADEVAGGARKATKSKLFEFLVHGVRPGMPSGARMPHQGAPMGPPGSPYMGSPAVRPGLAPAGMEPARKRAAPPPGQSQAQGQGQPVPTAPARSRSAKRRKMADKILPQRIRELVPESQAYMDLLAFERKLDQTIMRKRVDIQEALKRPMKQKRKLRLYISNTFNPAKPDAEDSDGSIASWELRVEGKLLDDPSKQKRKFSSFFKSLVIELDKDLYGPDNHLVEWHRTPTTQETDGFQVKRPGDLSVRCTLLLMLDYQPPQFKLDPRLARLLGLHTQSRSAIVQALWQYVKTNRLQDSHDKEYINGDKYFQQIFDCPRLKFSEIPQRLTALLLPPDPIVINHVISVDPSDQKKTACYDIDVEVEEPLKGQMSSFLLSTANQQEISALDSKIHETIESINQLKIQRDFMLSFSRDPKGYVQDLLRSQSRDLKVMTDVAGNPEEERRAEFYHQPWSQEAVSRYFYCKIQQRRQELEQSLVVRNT
# Experiments:
# [1] = biological target: GST-fused BAF60c (UniProt Q6P9Z1); assay: pull-down; GST fusion on glutathione Sepharose 4B beads incubated with 35S-labeled in vitro translated protein overnight at 4°C, washed with PBST three times; SDS-PAGE and autoradiography; only the target purified
# [2] = biological target: T1, GST-fused BAF60c, Q6P9Z1; assay: as above; details: remark: other sources report otherwise
Molecule,binding [1],binding [2]
"35S-labeled, in-vitro synthesized NKX2-5 (from UniProt P42582 1-318)",binds,
"full-length Myocardin, in vitro synthesized (from UniProt Q8VIM5 1-935)",binds,
"35S-labeled, in-vitro synthesized TBX5, P70326 1-518 (protein, here or on the partner: 35S methionine label) MADTDEGFGLARTPLEPDSKDRSCDSKPESALGAPSKSPSSPQAAFTQQGMEGIKVFLHERELWLKFHEVGTEMIITKAGRRMFPSYKVKVTGLNPKTKYILLMDIVPADDHRYKFADNKWSVTGKAEPAMPGRLYVHPDSPATGAHWMRQLVSFQKLKLTNNHLDPFGHIILNSMHKYQPRLHIVKADENNGFGSKNTAFCTHVFPETAFIAVTSYQNHKITQLKIENNPFAKGFRGSDDLELHRMSRMQSKEYPVVPRSTVRHKVTSNHSPFSSETRALSTSSNLGSQYQCENGVSGPSQDLLPPPNPYPLAQEHSQIYHCTKRKDEECSSTEHPYKKPYMETSPSEEDTFYRSGYPQQQGLSTSYRTESAQRQACMYASSAPPSEPVPSLEDISCNTWPSMPSYSSCTVTTVQPMDRLPYQHFSAHFTSGPLVPRLAGMANHGSPQLGEGMFQHQTSVAHQPVVRQCGPQTGLQSPGGLQPPEFLYTHGVPRTLSPHQYHSVHGVGMVPEWSENS",,binds

# From publication PMC5829499
